## Percent effect of library compounds

By UniProt entry, the sequences of proteins in these tests, tags left out.
UniProt P9WFT3, whole entry: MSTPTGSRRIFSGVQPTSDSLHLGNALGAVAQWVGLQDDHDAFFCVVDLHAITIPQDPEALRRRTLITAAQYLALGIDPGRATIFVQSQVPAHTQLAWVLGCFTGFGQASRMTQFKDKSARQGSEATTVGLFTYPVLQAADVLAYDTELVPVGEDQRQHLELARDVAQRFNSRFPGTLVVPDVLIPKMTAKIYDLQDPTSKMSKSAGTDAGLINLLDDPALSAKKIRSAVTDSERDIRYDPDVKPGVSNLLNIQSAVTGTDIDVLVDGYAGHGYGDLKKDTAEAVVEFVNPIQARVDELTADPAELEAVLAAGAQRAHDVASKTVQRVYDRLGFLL
UniProt P9WNZ1, whole entry: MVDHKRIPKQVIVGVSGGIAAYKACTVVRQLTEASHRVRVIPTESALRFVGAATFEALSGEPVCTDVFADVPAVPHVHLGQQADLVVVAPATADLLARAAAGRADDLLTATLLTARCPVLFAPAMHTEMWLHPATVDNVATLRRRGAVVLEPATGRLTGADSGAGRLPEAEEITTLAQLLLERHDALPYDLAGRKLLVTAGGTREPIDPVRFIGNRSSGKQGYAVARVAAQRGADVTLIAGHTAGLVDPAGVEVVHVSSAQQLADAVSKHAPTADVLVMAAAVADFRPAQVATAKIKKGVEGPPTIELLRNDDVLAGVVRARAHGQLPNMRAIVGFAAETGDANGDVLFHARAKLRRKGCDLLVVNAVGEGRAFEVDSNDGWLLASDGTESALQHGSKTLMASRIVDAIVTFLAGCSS

Data taken from ChEMBL document CHEMBL3988442, “University of Dundee, Small-Polar-MMV Screening Library” (2021).

A: 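Enzyme assay of tryptophanyl-tRNA synthetase; the read-out is not stated. Target: Tryptophan-tRNA ligase, Mycobacterium tuberculosis (UniProt P9WFT3). Compounds at 10 µM. Direction is not recorded; retested compounds ran higher, which suggests that high means inhibition. Of about 65,000 compounds tested this way, about 64 (0.098%) reached 50% or more in at least one test.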
B: 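Enzyme assay of CoaBC with a phosphate dye (Biomol Green) read at 650 nm. Target: Coenzyme A biosynthesis protein CoaBC, Mycobacterium tuberculosis (UniProt P9WNZ1). Concentration: 30 µM. Direction is inferred from only a few compounds that gave an IC50; most scored high, so higher reads as stronger inhibition. Most strong results did not repeat in a second test. Of about 67,000 compounds tested this way, about 40 (0.06%) reached 50% or more in at least one test.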

The filed quantity is “Percent Effect” (%). How 0% and 100% were set is not recorded. Most values in the screen are low, and negative values occur. The compounds are a random part of those screened. Two or more numbers in one place are separate tests of the same structure; such repeats can differ widely.

- COc1ccccc1OC1(C(=O)O)CCN(c2nc(C)cnc2C)CC1 : A: 0.1505%; B: 0.4878%
- Cc1nsc(NC(=O)N2CCN(Cc3ccc(F)cc3)C(=O)C2)n1 : A: 2.089%; B: -1.754%
- COc1cc(C(=O)O)cc(I)c1OCC(=O)NCCc1ccccc1 : A: 3.331%; B: 4.531%
- COCCN1CCO[C@H]2CN(C(=O)c3ccncc3F)C[C@H]21 : A: 0.2907%
- O=C(Nc1cn[nH]c1)c1ccc(O)nc1 : A: -0.3145%; B: -3.457%
- Cc1cnn(C2CN(CC(=O)NCC3(c4ccccc4)CCC3)C2)c1 : A: 2.999%; B: 7.592%
- CN(C)C(=O)CN1CCCC2(CCN(c3ccsc3)C2=O)C1 (stereo not drawn) : A: -5.286%; B: 23.58% & 7.407%
- COc1cccc(CN2CC(O)CN(C(=O)C3CC3)CC2=O)c1OC (stereo not drawn) : B: 0.9685%
- O=C(NCC1CC1)[C@@H]1CCO[C@@H]2CCN(Cc3ccco3)C[C@H]21 : A: 9.549%; B: 2.919%
- Cc1noc([C@@H]2CCCN2C(=O)C2CCN(CC(N)=O)CC2)n1 : A: -4.93%; B: 8.436%
- COc1ccc(CN2CC[C@H](c3nnc(-c4ccco4)o3)C2)cc1 : A: 4.173%; B: -1.987%
- CNC[C@H]1CC[C@H](c2cc(CN(C)S(=O)(=O)N(C)C)n(C)n2)CC1 : A: 4.581%; B: 0.4854%
- COc1ccc(NC(C)C(=O)N2CCN(c3ncccn3)CC2)cn1 (stereo not drawn) : A: 6.914%; B: 0.6397%
- Cc1cc(CN2CCN(C(=O)C3(C#N)CCCCC3)CC2)on1 : A: -0.5708%; B: 2.163%
- Cc1nc(CN2CCCC(NCC(=O)Nc3cccnc3)C2)no1 (stereo not drawn) : A: 0.7323%; B: 6.695%
- CCN1CC(C(=O)N2CCc3cc(C(N)=O)n(C)c3C2)CC1=O (stereo not drawn) : A: 9.034%; B: 2%
- CC(O)C1CCN(C(=O)CCOc2ccccc2F)CC1 (stereo not drawn) : A: 1.377%; B: 6.65%
- Cc1cccc(N2CCN(S(=O)(=O)CCN)CC2)c1 : A: -3.44%; B: 2.122%
- CNCC(=O)N1CCCC(c2ccnc(Nc3cnccn3)n2)C1 (stereo not drawn) : B: 2.206%
- Cc1nn(Cc2ccc(F)cc2)c2[nH]nc(N)c12 : A: 0.2646%; B: 3.205%
- CC(C)CNC(=O)N1CCC2(CC1)OC(C(N)=O)Cn1ccnc12 (stereo not drawn) : B: 0.9877%
- Cc1nc2sccn2c1C(=O)N1CCc2[nH]cnc2C1 : A: 16%; B: 10.74%
- Cc1cccc(N2CC3(CCN(Cc4nccn4C)C3)CC2=O)c1 (stereo not drawn) : A: -3.867%; B: 4.574%
- CCOc1cccc(NS(=O)(=O)c2cc(C)c(C(=O)O)s2)c1 : A: 4.862%; B: 9.251%
- CN1CCCC1CCNC(=O)c1ccccc1-n1cnc(CN)c1 (stereo not drawn) : A: 0.3264%; B: 5.085%

2 of the entries, repeated:

- COc1cccc(CN2CC(O)CN(C(=O)C3CC3)CC2=O)c1OC (stereo not drawn) : B: 0.9685%
- Cc1noc([C@@H]2CCCN2C(=O)C2CCN(CC(N)=O)CC2)n1 : A: -4.93%; B: 8.436%